Experimental data as given in article PMC11050252.

T1: calmodulin-dependent protein kinase 4 (CaMK4) (mouse (endogenous in MVEC)) (UniProt P08414)
T1 sequence: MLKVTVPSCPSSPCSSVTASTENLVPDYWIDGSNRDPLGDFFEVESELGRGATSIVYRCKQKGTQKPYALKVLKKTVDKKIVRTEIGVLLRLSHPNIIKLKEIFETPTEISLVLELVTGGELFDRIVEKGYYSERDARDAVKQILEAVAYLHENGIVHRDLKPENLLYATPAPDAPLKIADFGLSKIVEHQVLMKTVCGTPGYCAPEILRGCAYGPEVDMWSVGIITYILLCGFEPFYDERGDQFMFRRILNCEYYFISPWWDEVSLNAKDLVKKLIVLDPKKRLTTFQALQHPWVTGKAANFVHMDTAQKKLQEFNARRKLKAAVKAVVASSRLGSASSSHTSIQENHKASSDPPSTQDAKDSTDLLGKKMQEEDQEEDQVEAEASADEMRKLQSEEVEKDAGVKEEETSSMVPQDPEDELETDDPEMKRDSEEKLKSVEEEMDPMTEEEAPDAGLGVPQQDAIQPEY


Key:
[1] = target: T1, calmodulin-dependent protein kinase 4 (CaMK4) (mouse (endogenous in MVEC)); experiment: condition: only untreated and vehicle control treated cells (no necroptosis induction); co-IP; endogenous proteins of untreated and vehicle control treated mouse MVEC (no necroptosis induction); RIPA lysate, antibody, protein G agarose, Western blot
[2] = target: T1, calmodulin-dependent protein kinase 4 (CaMK4) (mouse (endogenous in MVEC)); experiment: co-IP; endogenous proteins of mouse MVEC induced to undergo necroptosis (TNFα + Smac mimetic BV6 + caspase-8 inhibitor z-IETD), collected after 4 h; RIPA lysate, 1 μg antibody 1-2 h at 4 °C, protein G agarose overnight at 4 °C, Western blot; rabbit IgG as control; in some panels cells treated 24 h before with vehicle or siRNA to CaMK1, CaMK2, CaMK4 or PGAM5
[3] = target: calmodulin-dependent protein kinase 2 (CaMK2) (mouse (endogenous in MVEC)); experiment: as above

| Molecule | binding [1] | binding [2] | binding [3] |
| --- | --- | --- | --- |
| calmodulin-dependent protein kinase 2 (CaMK2) (mouse (endogenous in MVEC)) | no binding | binds weakly |  |
| calmodulin-dependent protein kinase 4 (CaMK4) (protein, UniProt P08414 1-469) MLKVTVPSCPSSPCSSVTASTENLVPDYWIDGSNRDPLGDFFEVESELGRGATSIVYRCKQKGTQKPYALKVLKKTVDKKIVRTEIGVLLRLSHPNIIKLKEIFETPTEISLVLELVTGGELFDRIVEKGYYSERDARDAVKQILEAVAYLHENGIVHRDLKPENLLYATPAPDAPLKIADFGLSKIVEHQVLMKTVCGTPGYCAPEILRGCAYGPEVDMWSVGIITYILLCGFEPFYDERGDQFMFRRILNCEYYFISPWWDEVSLNAKDLVKKLIVLDPKKRLTTFQALQHPWVTGKAANFVHMDTAQKKLQEFNARRKLKAAVKAVVASSRLGSASSSHTSIQENHKASSDPPSTQDAKDSTDLLGKKMQEEDQEEDQVEAEASADEMRKLQSEEVEKDAGVKEEETSSMVPQDPEDELETDDPEMKRDSEEKLKSVEEEMDPMTEEEAPDAGLGVPQQDAIQPEY |  |  | binds |
| phosphoglycerate mutase 5 (PGAM5) (protein, UniProt Q8BX10 1-288) MAFRQALQLAACGLAGGSAAVLFSAVAVGKPRGGGDADTRATEPPAWTGARAGRGVWDTNWDRREPLSLINLKKRNVESGEDELTSRLDHYKAKATRHIFLIRHSQYHVDGSLEKDRTLTPLGREQAELTGLRLASLGLKFNKIVHSSMTRAVETTDIISKHLPGVSRVSTDLLREGAPIEPDPPVSHWKPEAVQYYEDGARIEAAFRNYIHRADARQEEDSYEIFICHANVIRYIVCRALQFPPEGWLRLSLNNGSITHLVIRPNGRVALRTLGDTGFMPPDKITRS |  |  | binds |

These are yes or no findings as the source states them, for the method shown. Binding seen in cells or lysates may run through a third protein. For some of these results: Binding can be weak; no strength is given.
